Assay results taken from the supplement of paper PMC12823440, “Inhibitors supercharge kinase turnover through native proteolytic circuits” (Nature, 2025).
Where a name gives a salt, the structure may show the parent alone. The list shows a part of the results. The calls rarely recur for the same compound in another form.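 Kinases, fused to nanoluciferase, were expressed in K562 cells; luminescence was measured every 4 h from 2 to 18 h as percent of control (DMSO = 100%, positive control = 0%). A time point is decreased if signal falls significantly (2 sigma). Hits were called by the authors by a rule that is not shown; the count of time points alone does not decide it.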

Amino acid sequences for entries named in this document (tags omitted).
UniProt P09619, whole entry: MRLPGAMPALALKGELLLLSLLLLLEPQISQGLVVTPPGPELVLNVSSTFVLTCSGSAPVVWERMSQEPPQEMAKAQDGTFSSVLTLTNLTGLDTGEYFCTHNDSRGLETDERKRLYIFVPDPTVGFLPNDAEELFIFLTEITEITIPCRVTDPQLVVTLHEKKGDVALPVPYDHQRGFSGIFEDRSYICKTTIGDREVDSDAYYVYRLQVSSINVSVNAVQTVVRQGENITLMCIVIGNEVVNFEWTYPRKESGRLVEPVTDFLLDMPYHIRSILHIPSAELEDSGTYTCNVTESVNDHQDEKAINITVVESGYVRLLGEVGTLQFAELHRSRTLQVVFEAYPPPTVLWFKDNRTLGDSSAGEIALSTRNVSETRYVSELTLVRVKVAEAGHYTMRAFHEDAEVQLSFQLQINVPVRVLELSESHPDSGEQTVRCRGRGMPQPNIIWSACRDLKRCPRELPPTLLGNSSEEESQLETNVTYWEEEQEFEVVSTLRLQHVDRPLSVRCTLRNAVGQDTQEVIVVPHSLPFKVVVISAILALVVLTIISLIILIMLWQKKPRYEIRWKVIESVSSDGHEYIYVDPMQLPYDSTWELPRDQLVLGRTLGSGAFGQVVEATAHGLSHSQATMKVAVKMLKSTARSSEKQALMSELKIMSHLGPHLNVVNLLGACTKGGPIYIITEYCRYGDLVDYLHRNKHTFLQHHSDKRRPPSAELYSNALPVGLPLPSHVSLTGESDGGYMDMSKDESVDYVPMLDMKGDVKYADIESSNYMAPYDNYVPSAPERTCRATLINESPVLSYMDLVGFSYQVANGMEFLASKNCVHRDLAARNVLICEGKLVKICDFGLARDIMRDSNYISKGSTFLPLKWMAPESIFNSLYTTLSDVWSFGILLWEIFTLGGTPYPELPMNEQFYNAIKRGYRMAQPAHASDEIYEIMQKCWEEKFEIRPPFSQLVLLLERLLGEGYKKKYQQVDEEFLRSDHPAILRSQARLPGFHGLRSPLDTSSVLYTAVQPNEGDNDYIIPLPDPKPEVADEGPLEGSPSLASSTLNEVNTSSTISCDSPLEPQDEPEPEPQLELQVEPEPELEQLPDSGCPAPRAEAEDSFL

Molecular target: PDGFRB (UniProt P09619)
Test: kinase-Nluc reporter destabilization hit call (1 = scored as downregulated) (binary); higher = compound decreases kinase abundance
Settings: 2.5 µM; K562; 2-18 h

kinase-Nluc reporter destabilization hit call, inactive:
CN1CCCN(C(=O)c2cccc(-c3ccc(/C=C4/C(=O)Nc5ccc(Cl)cc54)o3)c2)CC1 [CX-6258 (hydrochloride)] 0
Clc1ccc(C2(c3ccc(-c4cn[nH]c4)cc3)CCNCC2)cc1 [AT7867 (dihydrochloride)] 0
CC(C)Oc1ccc(-c2nn([C@@H](C)c3oc4ccc(F)cc4c(=O)c3-c3cccc(F)c3)c3ncnc(N)c23)cc1F [Umbralisib] 0
C=CC(=O)Nc1cc(Nc2nccc(-c3cn(C)c4ccccc34)n2)c(OC)cc1N(C)CCN(C)C [Osimertinib] 0
COc1cc2c(Oc3ccc4[nH]c(C)cc4c3F)ncnc2cc1OCCCN1CCCC1 [Cediranib (maleate)] 0
CC(C)Oc1ccc(-c2nn([C@@H](C)c3oc4ccc(F)cc4c(=O)c3-c3cccc(F)c3)c3ncnc(N)c23)cc1F [Umbralisib (hydrochloride)] 0
COc1ccc(S(=O)(=O)N(CCO)c2ccccc2CN(C)C/C=C/c2ccc(Cl)cc2)cc1 [KN-93 (hydrochloride)] 0
C=CC(=O)N1CCN(c2ncnc3c(F)c(-c4c(O)cccc4F)c(Cl)cc23)CC1 0
COc1ccc(S(=O)(=O)Nc2ccccc2CN(C)C/C=C/c2ccc(Cl)cc2)cc1 [KN-92 (hydrochloride)] 0
CCN(CC)Cc1ccc(OC)c(-c2cc3c(-c4ccc(C(=O)O)c(C(C)C)c4)ccnc3[nH]2)c1 0
